Consider four sequences from paper PMC8384837.

Some of the results follow. The exact form of the protein is not confirmed.

The assay concerns the target T1, PUM1 PUF domain R5-PHQ R6-SWD C1007P + R1008H + N1043S + Y1044W + Q1047D (UniProt Q14671).
T1 sequence: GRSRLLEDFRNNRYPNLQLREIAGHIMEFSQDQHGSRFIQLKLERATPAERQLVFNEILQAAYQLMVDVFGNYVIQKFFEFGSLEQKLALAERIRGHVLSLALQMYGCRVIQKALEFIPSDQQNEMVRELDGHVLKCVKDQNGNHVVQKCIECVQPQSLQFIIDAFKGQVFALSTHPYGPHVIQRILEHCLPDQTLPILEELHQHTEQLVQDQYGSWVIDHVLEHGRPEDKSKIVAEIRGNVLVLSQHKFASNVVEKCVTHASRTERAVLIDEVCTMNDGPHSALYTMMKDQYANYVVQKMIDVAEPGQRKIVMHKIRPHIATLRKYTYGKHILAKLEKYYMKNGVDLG
The settings on record: yeast three-hybrid, YBZ-1, SC-Leu-His + 0.5 mM 3-AT, 4 days.

Regarding “GGCUAGAACUAGUGGAUCCCCCGGCGCCCGGCGGCUCGAGCCCGGGUAAGCGACAAAAGUCUGCAUGCCGCCGGGCGCCAUGCCUGCAGGUCGACUCUAGAAAACAUG”, the binding signal (log2 enrichment (interaction score)) was less than -7.42.
The result for “GGCUAGAACUAGUGGAUCCCCCGGCGCCCGGCGGCUCGAGCCCGGGUAAGUUGAACAUGUCUGCAUGCCGCCGGGCGCCAUGCCUGCAGGUCGACUCUAGAAAACAUG” reads less than -7.07; that for “GGCUAGAACUAGUGGAUCCCCCGGCGCCCGGCGGCUCGAGCCCGGGUAAGUUGGAAUGGUCUGCAUGCCGCCGGGCGCCAUGCCUGCAGGUCGACUCUAGAAAACAUG”, less than -7.11.
The result for “GGCUAGAACUAGUGGAUCCCCCGGCGCCCGGCGGCUCGAGCCCGGGUAAGUUGAAUGAGUCUGCAUGCCGCCGGGCGCCAUGCCUGCAGGUCGACUCUAGAAAACAUG” reads less than -7.29.
